These are yes or no findings as the source states them, for the method shown. Binding seen in cells or lysates may run through a third protein. A yes stands for co-enrichment or nearness to the bait. Other partners may have been found.
Target: T1, non-receptor protein tyrosine phosphatase type 2 (PTPN2), endogenous (human (endogenous in MOLM13)) (UniProt P17706)
T1 sequence: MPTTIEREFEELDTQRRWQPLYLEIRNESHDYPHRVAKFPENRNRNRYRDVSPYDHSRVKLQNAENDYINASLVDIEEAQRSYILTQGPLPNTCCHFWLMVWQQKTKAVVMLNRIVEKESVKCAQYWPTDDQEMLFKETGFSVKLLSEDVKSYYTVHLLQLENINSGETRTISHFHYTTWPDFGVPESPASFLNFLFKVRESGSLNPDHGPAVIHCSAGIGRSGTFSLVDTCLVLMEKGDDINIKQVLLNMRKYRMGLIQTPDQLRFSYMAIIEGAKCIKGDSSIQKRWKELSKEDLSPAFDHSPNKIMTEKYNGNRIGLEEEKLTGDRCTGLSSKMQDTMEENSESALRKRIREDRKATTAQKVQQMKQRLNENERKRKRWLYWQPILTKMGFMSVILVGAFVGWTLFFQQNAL
Assay: affinity purification with mass spectrometry

Protein sequences, listed by entry. Tags and fused reporters are not part of them.
UniProt P01106: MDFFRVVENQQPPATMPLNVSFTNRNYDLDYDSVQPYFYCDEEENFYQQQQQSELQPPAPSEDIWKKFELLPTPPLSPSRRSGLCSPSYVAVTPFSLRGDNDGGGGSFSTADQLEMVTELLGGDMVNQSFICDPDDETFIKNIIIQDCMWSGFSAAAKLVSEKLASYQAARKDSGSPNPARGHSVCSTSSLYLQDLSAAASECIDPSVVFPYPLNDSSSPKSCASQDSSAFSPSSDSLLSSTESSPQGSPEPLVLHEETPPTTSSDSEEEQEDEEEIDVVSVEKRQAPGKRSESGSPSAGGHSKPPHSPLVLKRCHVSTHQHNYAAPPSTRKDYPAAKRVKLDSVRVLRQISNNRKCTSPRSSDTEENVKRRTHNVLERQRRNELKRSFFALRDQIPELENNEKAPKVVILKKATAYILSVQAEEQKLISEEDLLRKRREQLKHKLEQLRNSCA

binding: binds
Substance: C-MYC, endogenous (from UniProt P01106 1-454)

— article doi:10.1101/2024.05.07.592940
